According to doi:10.1101/275552:
These are yes or no findings as the source states them, for the method shown. Binding can be weak; no strength is given. Sequences can lack the tags named with a protein. For some assays here: In cells and extracts the contact can be indirect.

B1: SPR2-AD (AtSPR2, SPIRAL2; yeast two-hybrid fusion) (protein, UniProt Q9T041 1-864)
chain: MSTPTTSGSAAKPTRPARSSSLATRSCSNSGSLTSFQAMVELKQKILTSISKLADRDTYQIAVEDLEKTIQSLTPETLPMFLNCLYDSCSDPKPAVKKECLHLLSYVCSLHCDSTAAHLTKIIAQIVKRLKDSDSGVRDACRDTIGALSGIYLKGKEEGTNTGSASLAVGLFVKPLFEAMGEQNKVVQSGASMCMARMVESAASPPVTSFQKLCPRICKLLSNSSFLAKASLLPVVSSLSQVGAIAPQSLESLLESIHDCLGSTDWVTRKAAAETLTALASHSSGLIKEKTDSTITVLETCRFDKIKPVRESVTEALQLWKKISGKYVDGASDDSKLSASEQLGSEKNGEKRSNLADLMKKEASDGSTLSPDSASKGKGCFPEKAVGLLKKKAPVLSDKDFNPEFFQRLERRQSVEVVVPRRCKNNDEEESGLDDLNAMGSSNRLKNTQADDKQVKGRFDGNGSQARTSGDDKAGVVNGKETPGHHAPVSNTDNQSEGSFTSNRGNWSAIQRQLLQLERQQTNLMNMLQEFIGGSHDSMVTLEGRVRGLERIVEDMARDLSISSGRRANLTAGFGKYNSFANYPTGKYNGRAPGERGSQTDGAMRGRMWNSDMADDWFIPPHAASRNGQAGPRRSPRSEQYENEHMGNGRRGWDNKASGTIRFGEGPSARSVWQASKDEATLEAIRVAGEDGAVPRPTRVAVAPEAEAMGDDDNEGQERDPIWVSWSNAMHSLRVGDIDAAYAEVLCAGDQHLVIKLMDKTGPSLDQMSNEIANEALNFISQFLLDHSLYDICLSWSQQLLELVLQDGADTFGVPMELKTEILYNLQDACSTMDPPEDWEGPAPEQLVVQLASVWEIDLQQFDK
B2: SPR2-c/nYFP (AtSPR2 split-YFP fusion for BiFC) (protein, UniProt Q9T041 1-864)
chain: B1 chain

Assays:
[1] = biological target: OsIQD14-BD (yeast two-hybrid fusion) (rice (Oryza sativa, japonica variety Zhonghua11)); assay: two-hybrid
[2] = biological target: IQD14-n/cYFP (OsIQD14 split-YFP fusion for BiFC) (rice (Oryza sativa, japonica variety Zhonghua11)); assay: split reporter

Binder | binding [1] | binding [2]
B1 | binds | 
B2 |  | binds
